Assay [1] deals with FLAG-tagged Toll-like receptor 2 (TLR2-FLAG) (human) (UniProt O60603). Kind of assay: in vitro Ni-NTA pull-down with purified proteins, SDS-PAGE (FIG. 28B).
Assay [2] shares this target. Kind of assay: in vitro Ni-NTA pull-down with purified TLR2-FLAG and His-tagged AmTARS, SDS-PAGE.
Assay [3] concerns the target endogenous TLR2 of human THP1 cells (human) (UniProt O60603). Kind of assay: His-tag pull-down of THP1 membrane or cytoplasmic extract with His-tagged AmTARS, LC-MS/MS.
The target of assay [4] is FLAG-tagged Toll-like receptor 2 (TLR2-FLAG) (human) (UniProt O60603). Kind of assay: pull-down from HEK 293T lysates, western blot (FIG. 28A). (In general: In western blotting, separated proteins are transferred to a membrane and probed.)
The target is the same in assay [5]. Kind of assay: Strep-Tactin pull-down from HEK 293T cells co-expressing Strep-AmTARS and TLR2-FLAG, immunoblot.

The chains behind the UniProt entries cited, without tags or fusion partners.
UniProt O60603: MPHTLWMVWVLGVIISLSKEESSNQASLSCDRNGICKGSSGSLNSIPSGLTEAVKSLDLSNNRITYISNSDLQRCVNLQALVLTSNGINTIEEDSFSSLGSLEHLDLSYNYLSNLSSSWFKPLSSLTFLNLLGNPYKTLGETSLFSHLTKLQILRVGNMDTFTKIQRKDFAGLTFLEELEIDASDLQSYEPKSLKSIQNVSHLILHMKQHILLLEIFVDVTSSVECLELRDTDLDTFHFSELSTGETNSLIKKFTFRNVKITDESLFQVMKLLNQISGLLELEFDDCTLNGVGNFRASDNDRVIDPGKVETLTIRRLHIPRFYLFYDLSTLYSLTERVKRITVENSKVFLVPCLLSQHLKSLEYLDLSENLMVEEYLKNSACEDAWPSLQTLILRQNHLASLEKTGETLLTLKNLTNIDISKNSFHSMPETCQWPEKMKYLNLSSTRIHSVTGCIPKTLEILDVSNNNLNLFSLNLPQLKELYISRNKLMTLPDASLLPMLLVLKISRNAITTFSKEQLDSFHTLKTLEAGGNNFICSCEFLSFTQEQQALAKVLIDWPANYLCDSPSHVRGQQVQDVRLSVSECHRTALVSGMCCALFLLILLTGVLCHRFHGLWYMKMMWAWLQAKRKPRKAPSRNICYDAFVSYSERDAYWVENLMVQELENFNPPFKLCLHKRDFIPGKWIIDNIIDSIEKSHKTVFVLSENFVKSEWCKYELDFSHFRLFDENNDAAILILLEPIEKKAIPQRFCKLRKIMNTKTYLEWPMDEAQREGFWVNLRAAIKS

These are yes or no findings as the source states them, for the method shown. Binding seen in cells or lysates may run through a third protein. Some binding calls cover weakened binding; strength is not graded here. Where a sequence is shown, tags or fusion partners need not be part of it.

B1: His-tagged Akkermansia muciniphila threonyl-tRNA synthetase (AmTARS-His) (enzyme, not shown: small tags and cut ends)
chain: MSEHKERKTLEERQQMSDLERLRHSCAHVLATAICRLWPDAQLAGGPAVDNGFYYDVELDHRISTEDFERIEEEMKKVVKENQVFQKEVISRADAMKMAESGELGALGPRSEPSRFKIDLLNDIPEDEEISLYRNGDFTDLCAGPHVGRTGNCKAFKIMSVASAFYKGDKNRPMLQRIYGTCFPNRTQLDEHLERLEEARRRDHRKLGRELGLFCIDESVGQGLILWKPKGALIRRSLQDFITEELDKLGYSQVYTPNIGKLDLYRTSGHFPYYQESQYAPIPERDAMEKLSQEGASCAELFNGLATGTIEGYMLKPMNCPHHIKIYANDAHSYRDLPVRLAEFGTVYRWEQSGELGGMTRVRGFTQDDAHIFCTPDQLAGEIRQCLGIVKTIFGTLGMTDYRVRLSMRDPESDKYVGSPENWDKAEQALREAAEWLGADYSEEAGEAAFYGPKIDFIVRDAIGREWQLGTVQVDYNLPERFDLHYTGADNKPHRPVMVHRAPFGSMERFTGLLIEHFEGKFPTWLSPEQVRVLPISDKVTDVAAAHRTALAARGVRVTVDETPDKIGAKIRNARLDRVPYMLVLGQREAEDGTVSVRHRDKGDLGAMPFEQFADLVAREIAERHISPVI
B1: the binding entry in assay [1], in assay [2] and in assay [3] was “binds” in each case.

B2: Strep-tagged Akkermansia muciniphila threonyl-tRNA synthetase (Strep-AmTARS) (enzyme)
chain: MSEHKERKTLEERQQMSDLERLRHSCAHVLATAICRLWPDAQLAGGPAVDNGFYYDVELDHRISTEDFERIEEEMKKVVKENQVFQKEVISRADAMKMAESGELGALGPRSEPSRFKIDLLNDIPEDEEISLYRNGDFTDLCAGPHVGRTGNCKAFKIMSVASAFYKGDKNRPMLQRIYGTCFPNRTQLDEHLERLEEARRRDHRKLGRELGLFCIDESVGQGLILWKPKGALIRRSLQDFITEELDKLGYSQVYTPNIGKLDLYRTSGHFPYYQESQYAPIPERDAMEKLSQEGASCAELFNGLATGTIEGYMLKPMNCPHHIKIYANDAHSYRDLPVRLAEFGTVYRWEQSGELGGMTRVRGFTQDDAHIFCTPDQLAGEIRQCLGIVKTIFGTLGMTDYRVRLSMRDPESDKYVGSPENWDKAEQALREAAEWLGADYSEEAGEAAFYGPKIDFIVRDAIGREWQLGTVQVDYNLPERFDLHYTGADNKPHRPVMVHRAPFGSMERFTGLLIEHFEGKFPTWLSPEQVRVLPISDKVTDVAAAHRTALAARGVRVTVDETPDKIGAKIRNARLDRVPYMLVLGQREAEDGTVSVRHRDKGDLGAMPFEQFADLVAREIAERHISPVI
notes: The tag is put N-terminal from the name 'Strep-AmTARS'; not shown: 2 x Strep tag from vector pEXPR-IBA105
B2: the binding entry in assay [4] and in assay [5] was “binds” each time.

The values are drawn from patent US12636342B2, “TARS derived from Akkermansia muciniphila or fragment thereof, and use thereof” (KOREA RESEARCH INSTITUTE OF BIOSCIENCE AND BIOTECHNOLOGY, priority 2020, dated 2026).
